Assay results taken from the supplement of paper PMC10849652.
The other results are listed elsewhere or left out.

By UniProt entry, the sequences of proteins in these tests, tags left out. Where a name states a change or a piece, a line headed by the entry shows the natural chain unless it says otherwise.
UniProt Q6P5S2: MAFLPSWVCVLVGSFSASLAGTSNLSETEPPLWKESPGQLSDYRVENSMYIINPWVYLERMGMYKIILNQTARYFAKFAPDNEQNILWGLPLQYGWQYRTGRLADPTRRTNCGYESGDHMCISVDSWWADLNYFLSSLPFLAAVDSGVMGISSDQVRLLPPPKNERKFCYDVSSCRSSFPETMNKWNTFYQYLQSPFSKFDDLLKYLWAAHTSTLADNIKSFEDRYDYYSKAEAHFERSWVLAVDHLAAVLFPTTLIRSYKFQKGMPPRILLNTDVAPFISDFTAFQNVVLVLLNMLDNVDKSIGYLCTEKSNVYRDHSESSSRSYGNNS
UniProt Q9H9Z2: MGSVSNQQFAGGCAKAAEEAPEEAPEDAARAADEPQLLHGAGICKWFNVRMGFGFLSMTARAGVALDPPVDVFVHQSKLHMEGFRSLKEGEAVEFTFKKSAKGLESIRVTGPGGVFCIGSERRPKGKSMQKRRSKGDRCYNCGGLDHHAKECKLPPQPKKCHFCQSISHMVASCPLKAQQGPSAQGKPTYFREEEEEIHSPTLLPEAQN
UniProt Q86VI4: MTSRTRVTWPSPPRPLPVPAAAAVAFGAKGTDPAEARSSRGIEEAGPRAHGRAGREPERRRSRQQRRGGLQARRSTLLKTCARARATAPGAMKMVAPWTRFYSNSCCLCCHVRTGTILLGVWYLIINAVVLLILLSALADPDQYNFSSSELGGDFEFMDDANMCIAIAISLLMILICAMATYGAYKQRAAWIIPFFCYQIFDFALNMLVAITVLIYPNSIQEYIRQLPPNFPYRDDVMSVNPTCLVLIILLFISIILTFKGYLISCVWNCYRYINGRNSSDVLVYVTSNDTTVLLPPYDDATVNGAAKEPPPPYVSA
UniProt Q9BT23: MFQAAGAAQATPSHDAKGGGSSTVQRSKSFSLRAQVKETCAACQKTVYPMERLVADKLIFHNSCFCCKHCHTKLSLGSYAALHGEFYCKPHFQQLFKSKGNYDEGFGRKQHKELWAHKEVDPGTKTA
UniProt Q15048: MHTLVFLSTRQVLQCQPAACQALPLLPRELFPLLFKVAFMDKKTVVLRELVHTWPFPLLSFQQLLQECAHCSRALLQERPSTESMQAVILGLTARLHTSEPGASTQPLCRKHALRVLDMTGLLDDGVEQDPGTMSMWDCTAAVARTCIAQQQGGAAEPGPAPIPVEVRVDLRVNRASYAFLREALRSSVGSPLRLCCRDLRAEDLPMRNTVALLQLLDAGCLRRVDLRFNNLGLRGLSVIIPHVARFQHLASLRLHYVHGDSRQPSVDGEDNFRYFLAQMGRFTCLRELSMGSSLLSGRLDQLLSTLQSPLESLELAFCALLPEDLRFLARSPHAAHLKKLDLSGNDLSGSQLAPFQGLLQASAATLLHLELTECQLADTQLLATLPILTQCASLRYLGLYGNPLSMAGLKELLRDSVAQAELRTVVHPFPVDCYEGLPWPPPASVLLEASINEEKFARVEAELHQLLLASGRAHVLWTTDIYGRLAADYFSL
UniProt Q5SW96: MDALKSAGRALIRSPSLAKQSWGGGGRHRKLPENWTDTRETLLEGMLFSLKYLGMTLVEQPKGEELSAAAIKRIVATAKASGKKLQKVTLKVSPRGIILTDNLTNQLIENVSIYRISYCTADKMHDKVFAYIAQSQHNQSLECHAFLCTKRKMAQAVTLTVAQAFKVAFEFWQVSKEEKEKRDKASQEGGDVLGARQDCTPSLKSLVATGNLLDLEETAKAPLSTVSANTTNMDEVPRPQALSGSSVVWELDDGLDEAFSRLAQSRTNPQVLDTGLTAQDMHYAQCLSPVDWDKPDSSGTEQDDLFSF
UniProt Q643R3: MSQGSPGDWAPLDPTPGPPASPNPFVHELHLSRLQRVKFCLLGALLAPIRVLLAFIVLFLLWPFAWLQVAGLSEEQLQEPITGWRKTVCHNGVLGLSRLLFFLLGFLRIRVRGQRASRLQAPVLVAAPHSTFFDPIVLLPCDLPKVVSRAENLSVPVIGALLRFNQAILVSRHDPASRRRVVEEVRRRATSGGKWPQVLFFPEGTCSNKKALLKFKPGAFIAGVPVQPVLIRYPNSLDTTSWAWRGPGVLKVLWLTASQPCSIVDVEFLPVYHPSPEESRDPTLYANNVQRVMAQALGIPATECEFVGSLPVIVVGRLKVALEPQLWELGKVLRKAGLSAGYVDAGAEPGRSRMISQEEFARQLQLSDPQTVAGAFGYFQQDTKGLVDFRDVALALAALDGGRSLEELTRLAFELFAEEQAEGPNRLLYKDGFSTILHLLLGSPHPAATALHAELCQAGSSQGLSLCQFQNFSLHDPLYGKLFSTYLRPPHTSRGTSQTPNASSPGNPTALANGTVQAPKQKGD
UniProt Q6P1M3: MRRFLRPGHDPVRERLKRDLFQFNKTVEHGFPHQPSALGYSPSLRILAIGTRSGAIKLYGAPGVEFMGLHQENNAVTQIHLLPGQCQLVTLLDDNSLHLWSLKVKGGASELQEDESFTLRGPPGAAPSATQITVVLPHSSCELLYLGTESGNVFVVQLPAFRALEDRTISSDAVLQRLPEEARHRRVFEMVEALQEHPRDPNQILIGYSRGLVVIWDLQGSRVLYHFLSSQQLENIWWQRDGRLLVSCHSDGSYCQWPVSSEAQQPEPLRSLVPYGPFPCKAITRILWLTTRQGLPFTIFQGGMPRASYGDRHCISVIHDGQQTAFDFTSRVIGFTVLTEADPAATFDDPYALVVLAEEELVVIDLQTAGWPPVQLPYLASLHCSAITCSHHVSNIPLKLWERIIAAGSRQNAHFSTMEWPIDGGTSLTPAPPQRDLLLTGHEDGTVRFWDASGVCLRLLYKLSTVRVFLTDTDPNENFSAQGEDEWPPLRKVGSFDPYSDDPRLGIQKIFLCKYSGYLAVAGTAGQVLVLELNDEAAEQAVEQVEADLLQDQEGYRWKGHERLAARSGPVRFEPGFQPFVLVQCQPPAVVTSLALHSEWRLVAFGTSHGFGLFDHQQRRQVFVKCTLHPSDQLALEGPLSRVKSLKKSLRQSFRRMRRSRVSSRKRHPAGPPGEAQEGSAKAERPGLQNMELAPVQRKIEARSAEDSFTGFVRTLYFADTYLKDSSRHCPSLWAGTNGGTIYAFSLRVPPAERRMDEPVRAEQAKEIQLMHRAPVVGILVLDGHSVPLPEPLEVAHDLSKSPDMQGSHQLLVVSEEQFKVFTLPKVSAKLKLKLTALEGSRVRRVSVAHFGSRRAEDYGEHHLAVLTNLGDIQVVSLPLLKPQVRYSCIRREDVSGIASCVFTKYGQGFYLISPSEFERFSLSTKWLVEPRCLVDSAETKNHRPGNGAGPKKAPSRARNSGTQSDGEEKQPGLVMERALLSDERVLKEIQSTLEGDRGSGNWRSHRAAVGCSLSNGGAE
UniProt P13473: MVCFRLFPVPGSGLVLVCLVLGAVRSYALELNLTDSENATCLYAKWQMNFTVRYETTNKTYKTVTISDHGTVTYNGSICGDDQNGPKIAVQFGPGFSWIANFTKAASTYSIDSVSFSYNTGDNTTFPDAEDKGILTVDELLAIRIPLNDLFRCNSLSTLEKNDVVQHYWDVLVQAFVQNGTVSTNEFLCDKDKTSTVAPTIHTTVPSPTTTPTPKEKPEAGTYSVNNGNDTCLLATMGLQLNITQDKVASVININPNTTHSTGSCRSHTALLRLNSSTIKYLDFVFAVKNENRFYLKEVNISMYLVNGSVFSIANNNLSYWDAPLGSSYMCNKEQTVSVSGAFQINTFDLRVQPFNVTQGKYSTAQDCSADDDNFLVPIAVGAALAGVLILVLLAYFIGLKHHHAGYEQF
UniProt Q9BQD3: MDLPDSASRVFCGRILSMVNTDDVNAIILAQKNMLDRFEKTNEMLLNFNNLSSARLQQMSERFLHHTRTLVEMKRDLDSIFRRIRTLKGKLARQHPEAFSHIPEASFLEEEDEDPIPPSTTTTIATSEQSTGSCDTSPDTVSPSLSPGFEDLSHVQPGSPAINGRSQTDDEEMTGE
UniProt Q08380: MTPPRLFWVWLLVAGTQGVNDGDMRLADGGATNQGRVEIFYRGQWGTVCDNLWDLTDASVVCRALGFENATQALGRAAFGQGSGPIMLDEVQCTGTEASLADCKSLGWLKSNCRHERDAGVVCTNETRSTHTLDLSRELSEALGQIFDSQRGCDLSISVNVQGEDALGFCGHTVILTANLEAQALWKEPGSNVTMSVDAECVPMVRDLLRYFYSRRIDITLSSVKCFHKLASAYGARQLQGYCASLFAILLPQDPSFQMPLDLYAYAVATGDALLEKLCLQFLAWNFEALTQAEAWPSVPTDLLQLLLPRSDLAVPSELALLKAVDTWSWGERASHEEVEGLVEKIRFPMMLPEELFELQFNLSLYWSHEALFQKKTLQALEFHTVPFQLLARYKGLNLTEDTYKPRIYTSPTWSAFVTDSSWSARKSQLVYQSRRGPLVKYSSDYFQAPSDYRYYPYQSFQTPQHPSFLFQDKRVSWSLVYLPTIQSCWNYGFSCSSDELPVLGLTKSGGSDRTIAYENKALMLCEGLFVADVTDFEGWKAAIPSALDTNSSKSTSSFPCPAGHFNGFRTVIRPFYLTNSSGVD
UniProt Q6ZUX7: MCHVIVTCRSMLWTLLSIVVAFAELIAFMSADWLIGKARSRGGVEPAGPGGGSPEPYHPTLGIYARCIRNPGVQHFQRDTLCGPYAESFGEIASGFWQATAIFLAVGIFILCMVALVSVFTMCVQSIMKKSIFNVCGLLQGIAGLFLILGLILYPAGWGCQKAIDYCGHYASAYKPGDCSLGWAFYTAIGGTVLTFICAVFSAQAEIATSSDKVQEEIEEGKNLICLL
UniProt Q96KR4: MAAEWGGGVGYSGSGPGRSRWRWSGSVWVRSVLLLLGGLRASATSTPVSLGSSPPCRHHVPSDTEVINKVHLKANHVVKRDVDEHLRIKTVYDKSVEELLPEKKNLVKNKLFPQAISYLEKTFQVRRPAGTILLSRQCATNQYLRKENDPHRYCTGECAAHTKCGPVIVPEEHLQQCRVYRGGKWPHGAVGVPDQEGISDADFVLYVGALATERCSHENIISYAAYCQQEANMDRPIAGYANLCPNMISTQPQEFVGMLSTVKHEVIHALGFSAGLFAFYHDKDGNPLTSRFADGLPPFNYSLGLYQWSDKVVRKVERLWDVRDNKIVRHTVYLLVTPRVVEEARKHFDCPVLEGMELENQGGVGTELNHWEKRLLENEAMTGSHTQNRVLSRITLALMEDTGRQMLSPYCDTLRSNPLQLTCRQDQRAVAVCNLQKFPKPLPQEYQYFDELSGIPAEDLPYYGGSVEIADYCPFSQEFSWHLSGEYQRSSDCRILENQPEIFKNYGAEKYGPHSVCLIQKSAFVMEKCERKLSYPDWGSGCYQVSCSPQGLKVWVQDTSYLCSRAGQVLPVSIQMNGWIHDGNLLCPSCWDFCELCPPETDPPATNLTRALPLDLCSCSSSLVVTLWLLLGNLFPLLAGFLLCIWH
UniProt Q53QV2: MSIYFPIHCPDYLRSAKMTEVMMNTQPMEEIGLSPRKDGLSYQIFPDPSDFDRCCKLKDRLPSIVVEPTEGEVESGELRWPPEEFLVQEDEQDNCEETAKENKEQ
UniProt Q13571: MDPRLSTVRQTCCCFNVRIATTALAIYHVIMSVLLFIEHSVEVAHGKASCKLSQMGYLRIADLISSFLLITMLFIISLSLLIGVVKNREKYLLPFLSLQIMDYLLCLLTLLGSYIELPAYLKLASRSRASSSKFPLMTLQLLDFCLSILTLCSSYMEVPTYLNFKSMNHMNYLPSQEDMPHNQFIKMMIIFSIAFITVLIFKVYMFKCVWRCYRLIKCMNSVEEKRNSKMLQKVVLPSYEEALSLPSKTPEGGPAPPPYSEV
UniProt Q9BQE6: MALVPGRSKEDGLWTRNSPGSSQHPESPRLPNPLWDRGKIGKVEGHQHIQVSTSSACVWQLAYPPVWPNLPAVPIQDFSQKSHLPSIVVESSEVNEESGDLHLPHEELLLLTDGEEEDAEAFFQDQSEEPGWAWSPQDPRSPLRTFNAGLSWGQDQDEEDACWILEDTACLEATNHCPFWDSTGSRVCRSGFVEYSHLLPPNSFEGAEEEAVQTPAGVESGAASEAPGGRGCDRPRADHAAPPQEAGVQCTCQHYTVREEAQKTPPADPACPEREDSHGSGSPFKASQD
UniProt Q86WU2: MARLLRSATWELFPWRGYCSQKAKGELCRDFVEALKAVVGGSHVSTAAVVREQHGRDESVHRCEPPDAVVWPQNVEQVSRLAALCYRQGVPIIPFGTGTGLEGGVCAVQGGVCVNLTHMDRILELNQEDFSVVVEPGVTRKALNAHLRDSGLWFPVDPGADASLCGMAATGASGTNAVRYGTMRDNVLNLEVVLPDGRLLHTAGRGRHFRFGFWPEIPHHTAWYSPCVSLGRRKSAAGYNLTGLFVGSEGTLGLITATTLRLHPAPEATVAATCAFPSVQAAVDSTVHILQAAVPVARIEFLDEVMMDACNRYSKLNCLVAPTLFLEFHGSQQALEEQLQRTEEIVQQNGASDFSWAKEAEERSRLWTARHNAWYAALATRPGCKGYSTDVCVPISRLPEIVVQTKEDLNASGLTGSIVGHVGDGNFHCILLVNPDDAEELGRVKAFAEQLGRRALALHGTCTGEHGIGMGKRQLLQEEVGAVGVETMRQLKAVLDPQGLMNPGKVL

The targets below were run with CS(=O)(=O)c1ccc(-c2cnc(N)c(C(=O)Nc3ccccc3)n2)cc1 (assay: log2 fold change, soluble protein after heating vs DMSO (PISA); higher = thermal stabilisation; K562 cells, 10 uM, 30 min; active = over 0.2 and 3.5 SD of the protein, either way, in both replicates (recomputed)).
Outline: (§1)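 K562 cells at 2×10^6 cells/mL were exposed to 10 μM compound for 30 min, then aliquots were heated for 3 min across 48°C-58°C, pooled, and extracted in PBS containing 0.5% NP-40 at 4°C. The supernatant after 21,000xg for 90 min was taken as soluble protein and measured by TMTpro 16plex LC-MS/MS with channel sums equalised. Thermal stability is reported relative to control samples, with values from duplicates. Fold changes are given on a log2 scale.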
For LEG1 (UniProt Q6P5S2), the log2 fold change was inactive: -0.028.
In the case of LIN28A (UniProt Q9H9Z2), the log2 fold change was inactive: 0.014.
With LIG4 (UniProt P49917) the log2 fold change was inactive: 0.095.
For LAPTM4B (UniProt Q86VI4), the log2 fold change was inactive: 0.012.
In the case of LCN2 isoform 2 (UniProt P80188), the log2 fold change was inactive: -0.178.
In the case of LIMD2 (UniProt Q9BT23), the log2 fold change was inactive: 0.059.
In the case of LARP1B, A0A3B3ISF0, the log2 fold change was inactive: 0.095.

What follows are targets tested with C[C@@H](Oc1cc(-c2cnn(C3CCNCC3)c2)cnc1N)c1c(Cl)ccc(F)c1Cl [crizotinib] in the same assay as above.
Outline: as §1
L1TD1 (UniProt Q5T7N2) was tested, and the log2 fold change was inactive: -0.121.
For LRRC14 (UniProt Q15048), the log2 fold change was inactive: -0.026.
With LDLRAP1 (UniProt Q5SW96) the log2 fold change was inactive: 0.004.
LPCAT4 (UniProt Q643R3) was tested, and the log2 fold change was inactive: -0.092.
With LLGL2 (UniProt Q6P1M3) the log2 fold change was inactive: 0.
With LIMS1 (UniProt P48059) the log2 fold change was inactive: 0.003.
For LGALSL (UniProt Q3ZCW2), the log2 fold change was inactive: -0.139.
In the case of LEPROTL1 isoform 2 (UniProt O95214), the log2 fold change was inactive: -0.165.
With LMO4 (UniProt P61968) the log2 fold change was inactive: 0.003.
LAMP2 isoform 2 (UniProt P13473) was tested, and the log2 fold change was active: -0.424.

The targets below were run with C[C@@H]1COCCN1C2=NC(=NC(=C2)C3(CC3)S(=O)(=O)C)C4=C5C=CNC5=CC=C4 in the same assay as above.
Outline: as §1
With LOR (UniProt P23490) the log2 fold change was inactive: -0.415.
With KXD1 (UniProt Q9BQD3) the log2 fold change was inactive: 0.118.
With LPCAT4 (UniProt Q643R3) the log2 fold change was inactive: -0.147.
In the case of LRP1 (UniProt Q07954), the log2 fold change was inactive: 0.205.
In the case of LGALS3BP (UniProt Q08380), the log2 fold change was inactive: 0.028.
In the case of LLGL2 (UniProt Q6P1M3), the log2 fold change was inactive: -0.067.
LHFPL2 (UniProt Q6ZUX7) was tested, and the log2 fold change was inactive: 0.063.
LRP5 (UniProt O75197) was tested, and the log2 fold change was inactive: -0.014.
LAMA5 (UniProt O15230) was tested, and the log2 fold change was inactive: -0.239.
With LEPROT (UniProt O15243) the log2 fold change was inactive: -0.149.
For LMLN isoform 3 (UniProt Q96KR4), the log2 fold change was inactive: -0.033.
LAMP2 isoform 2 (UniProt P13473) was tested, and the log2 fold change was inactive: 0.119.
LBH (UniProt Q53QV2) was tested, and the log2 fold change was inactive: 0.161.

Each target was assayed with C[C@H](C1=CC=C(C=C1)C(=O)NC2=C3C=CNC3=NC=C2)N in the same assay as above.
Outline: as §1
KXD1 (UniProt Q9BQD3) was tested, and the log2 fold change was inactive: -0.009.
LAPTM5 (UniProt Q13571) was tested, and the log2 fold change was inactive: 0.043.
LRRC42 (UniProt Q9Y546) was tested, and the log2 fold change was inactive: 0.206.
With L1TD1 (UniProt Q5T7N2) the log2 fold change was inactive: 0.217.
With LEG1 (UniProt Q6P5S2) the log2 fold change was inactive: 0.257.
LBHD1 (UniProt Q9BQE6) was tested, and the log2 fold change was inactive: 0.058.
LIN28A (UniProt Q9H9Z2) was tested, and the log2 fold change was inactive: -0.324.
LPCAT4 (UniProt Q643R3) was tested, and the log2 fold change was inactive: 0.286.
In the case of LLGL2 (UniProt Q6P1M3), the log2 fold change was inactive: 0.309.
For LAMA2 (UniProt P24043), the log2 fold change was inactive: 0.49.
LRP5 (UniProt O75197) was tested, and the log2 fold change was inactive: -0.028.
For LDHD (UniProt Q86WU2), the log2 fold change was inactive: 0.338.
In the case of LIMD2 (UniProt Q9BT23), the log2 fold change was inactive: -0.117.
With LAMA5 (UniProt O15230) the log2 fold change was inactive: -0.043.
For LEPROT (UniProt O15243), the log2 fold change was inactive: 0.083.
In the case of LEPROTL1 isoform 2 (UniProt O95214), the log2 fold change was inactive: -0.046.
With LMO4 (UniProt P61968) the log2 fold change was inactive: -0.022.
In the case of LAMP2 isoform 2 (UniProt P13473), the log2 fold change was inactive: -0.051.
In the case of LIMS1 isoform 5 (UniProt P48059), the log2 fold change was inactive: 0.089.
